Consider one molecule from article PMC10884759, “Decreased pyruvate dehydrogenase activity in Tafazzin-deficient cells is caused by dysregulation of pyruvate dehydrogenase phosphatase 1 (PDP1)” (The Journal of Biological Chemistry, 2024).

No constants are given. Whether binding was seen depends on the method and setting. Binding seen in cells or lysates may run through a third protein. Some results given as binding are weak or reduced against the parent protein; the word gives no strength. For some assays here: Sequences can lack the tags named with a protein.

Test [1] addresses T1, endogenous pyruvate dehydrogenase phosphatase 1 (PDP1) (mouse (endogenous in C2C12)) (UniProt Q3UV70).
T1 sequence: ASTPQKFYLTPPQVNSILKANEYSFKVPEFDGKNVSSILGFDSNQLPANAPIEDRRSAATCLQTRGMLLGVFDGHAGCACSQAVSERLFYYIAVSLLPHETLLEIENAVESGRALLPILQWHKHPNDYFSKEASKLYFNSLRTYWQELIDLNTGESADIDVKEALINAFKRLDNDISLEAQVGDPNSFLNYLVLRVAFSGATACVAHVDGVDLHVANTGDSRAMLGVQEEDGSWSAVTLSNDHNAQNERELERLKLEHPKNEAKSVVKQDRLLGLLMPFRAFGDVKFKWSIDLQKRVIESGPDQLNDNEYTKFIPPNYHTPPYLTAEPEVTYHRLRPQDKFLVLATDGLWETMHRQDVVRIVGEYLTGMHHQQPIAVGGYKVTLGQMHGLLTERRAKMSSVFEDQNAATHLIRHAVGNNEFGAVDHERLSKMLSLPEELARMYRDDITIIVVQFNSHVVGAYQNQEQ
Nature of the test: co-IP; endogenous proteins in WT and TAZ-KO C2C12 myoblast lysates, immunoprecipitated with specific antibodies, Western blot; negative control: WT lysate on empty beads without primary antibody. (In general: Immunoblotting shows a protein as a band on a membrane.)

In test [2] the target is T2, recombinant PDP1 protein (PDP1-His6), mature polypeptide of pyruvate dehydrogenase phosphatase 1 (mouse (from the Ensembl transcript of the C3H/HeJ mouse strain; not stated in words for the cDNA)) (UniProt Q3UV70).
T2 sequence: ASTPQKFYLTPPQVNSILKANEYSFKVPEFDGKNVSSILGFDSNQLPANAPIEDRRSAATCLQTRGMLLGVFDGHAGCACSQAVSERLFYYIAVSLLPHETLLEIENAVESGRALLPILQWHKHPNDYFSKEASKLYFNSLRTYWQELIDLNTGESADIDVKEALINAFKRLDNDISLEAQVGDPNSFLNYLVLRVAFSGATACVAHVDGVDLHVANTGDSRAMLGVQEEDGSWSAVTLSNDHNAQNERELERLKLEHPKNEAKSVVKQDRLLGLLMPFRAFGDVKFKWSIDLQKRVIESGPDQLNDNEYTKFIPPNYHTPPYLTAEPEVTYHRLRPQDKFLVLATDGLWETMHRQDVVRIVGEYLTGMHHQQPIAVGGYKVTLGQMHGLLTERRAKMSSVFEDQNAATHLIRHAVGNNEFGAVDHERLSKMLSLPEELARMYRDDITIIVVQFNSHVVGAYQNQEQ
Nature of the test: pull-down; purified PDP1-His6 immobilised on HisPur resin columns (Pierce polyHis pull-down kit); clarified lysates of WT and TAZ-KO C2C12 myoblasts (25 mM Tris, 75 mM NaCl, 0.1% Tween 20, pH 7.4) incubated overnight at 4 °C; 5 washes, elution, Western blot; only the target purified.

B1: dihydrolipoamide acetyltransferase (E2) subunit of the PDH complex (protein, UniProt Q8BMF4 86-642)
chain: SLPPHQKVPLPSLSPTMQAGTIARWEKKEGEKISEGDLIAEVETDKATVGFESLEECYMAKILVPEGTRDVPVGSIICITVEKPQDIEAFKNYTLDLAAAAAPQAAPAAAPAPAAAPAAPSASAPGSSYPTHMQIVLPALSPTMTMGTVQRWEKKVGEKLSEGDLLAEIETDKATIGFEVQEEGYLAKILVPEGTRDVPLGAPLCIIVEKQEDIAAFADYRPTEVTSLKPQAAPPAPPPVAAVPPTPQPVAPTPSAAPAGPKGRVFVSPLAKKLAAEKGIDLTQVKGTGPEGRIIKKDIDSFVPSKAAPAAAAAMAPPGPRVAPAPAGVFTDIPISNIRRVIAQRLMQSKQTIPHYYLSVDVNMGEVLLVRKELNKMLEGKGKISVNDFIIKASALACLKVPEANSSWMDTVIRQNHVVDVSVAVSTPAGLITPIVFNAHIKGLETIASDVVSLASKAREGKLQPHEFQGGTFTISNLGMFGIKNFSAIINPPQACILAIGASEDKLIPADNEKGFDVASVMSVTLSCDHRVVDGAVGAQWLAEFKKYLEKPITMLL
Take B1: the binding result in test [1] and in test [2] was “binds” each time.
